Results reported in paper PMC11020266.
These are yes or no findings as the source states them, for the method shown. In cells and extracts the contact can be indirect. Some binding calls cover weakened binding; strength is not graded here.

Chains of the proteins cited; added tags and fusions are not shown.
UniProt Q8K1M6: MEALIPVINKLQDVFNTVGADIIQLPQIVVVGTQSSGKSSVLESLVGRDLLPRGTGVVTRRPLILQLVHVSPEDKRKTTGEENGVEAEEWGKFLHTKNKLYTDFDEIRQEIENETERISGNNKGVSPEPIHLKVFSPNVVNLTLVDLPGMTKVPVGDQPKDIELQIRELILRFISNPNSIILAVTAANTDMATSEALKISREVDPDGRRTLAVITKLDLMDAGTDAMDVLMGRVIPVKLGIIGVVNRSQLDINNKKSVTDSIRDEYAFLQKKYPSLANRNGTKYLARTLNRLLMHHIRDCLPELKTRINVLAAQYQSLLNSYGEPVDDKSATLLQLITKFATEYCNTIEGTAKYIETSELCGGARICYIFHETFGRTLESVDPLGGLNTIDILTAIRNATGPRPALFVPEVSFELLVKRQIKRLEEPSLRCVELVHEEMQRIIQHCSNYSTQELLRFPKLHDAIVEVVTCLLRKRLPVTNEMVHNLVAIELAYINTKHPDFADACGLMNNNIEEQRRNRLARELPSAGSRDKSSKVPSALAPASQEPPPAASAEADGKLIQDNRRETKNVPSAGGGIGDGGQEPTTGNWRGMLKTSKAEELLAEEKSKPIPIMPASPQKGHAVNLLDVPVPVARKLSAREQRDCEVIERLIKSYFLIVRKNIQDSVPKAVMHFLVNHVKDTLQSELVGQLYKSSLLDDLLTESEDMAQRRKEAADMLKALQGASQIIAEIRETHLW

B1: Gasdermin D (protein, UniProt Q9D8T2 1-487)
chain: MPSAFEKVVKNVIKEVSGSRGDLIPVDSLRNSTSFRPYCLLNRKFSSSRFWKPRYSCVNLSIKDILEPSAPEPEPECFGSFKVSDVVDGNIQGRVMLSGMGEGKISGGAAVSDSSSASMNVCILRVTQKTWETMQHERHLQQPENKILQQLRSRGDDLFVVTEVLQTKEEVQITEVHSQEGSGQFTLPGALCLKGEGKGHQSRKKMVTIPAGSILAFRVAQLLIGSKWDILLVSDEKQRTFEPSSGDRKAVGQRHHGLNVLAALCSIGKQLSLLSDGIDEEELIEAADFQGLYAEVKACSSELESLEMELRQQILVNIGKILQDQPSMEALEASLGQGLCSGGQVEPLDGPAGCILECLVLDSGELVPELAAPIFYLLGALAVLSETQQQLLAKALETTVLSKQLELVKHVLEQSTPWQEQSSVSLPTVLLGDCWDEKNPTWVLLEECGLRLQVESPQVHWEPTSLIPTSALYASLFLLSSLGQKPC

Columns and labels:
[1] = target: T1, Gasdermin D (mouse (endogenous in hippocampus)) (UniProt Q9D8T2); assay: co-IP; mouse hippocampal lysate supernatant; immunoprecipitation with anti-GSDMD, anti-Drp1 or IgG control for 2 h, then protein A/G-agarose beads overnight; five washes with lysis buffer; western blotting with anti-Drp1 and anti-GSDMD
T1 sequence: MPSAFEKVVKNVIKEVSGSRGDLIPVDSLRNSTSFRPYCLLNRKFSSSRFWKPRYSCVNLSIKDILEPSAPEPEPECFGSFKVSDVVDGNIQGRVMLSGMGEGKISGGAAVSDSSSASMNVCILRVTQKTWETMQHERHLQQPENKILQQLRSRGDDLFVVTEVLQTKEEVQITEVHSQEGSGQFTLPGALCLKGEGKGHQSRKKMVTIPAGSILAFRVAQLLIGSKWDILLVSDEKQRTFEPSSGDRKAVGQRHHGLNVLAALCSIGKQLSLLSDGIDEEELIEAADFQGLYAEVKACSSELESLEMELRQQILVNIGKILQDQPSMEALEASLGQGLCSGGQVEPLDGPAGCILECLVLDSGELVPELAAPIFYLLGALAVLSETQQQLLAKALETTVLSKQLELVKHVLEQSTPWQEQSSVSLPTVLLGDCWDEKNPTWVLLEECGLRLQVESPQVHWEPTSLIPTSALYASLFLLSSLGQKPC

[2] = target: Dynamin-related protein 1 (mouse (endogenous in hippocampus)) (UniProt Q8K1M6); assay: as above

Molecule	binding [1]	binding [2]
Dynamin-related protein 1 (from UniProt Q8K1M6 1-736)	binds	
B1		binds
